# Assay results reported in PubChem BioAssay AID493014 (National Center for Advancing Translational Sciences (NCATS), 2011).
# The list shows a part of the results. The main result of the screen is listed elsewhere. These columns were measured beside it and carry no call. The list favours compounds with an active or inconclusive main result. Potencies come from curve fits of mixed quality, noted in brackets.
# Experiment: qHTS Assay to Find Inhibitors of Chronic Active B-Cell Receptor Signaling
# Settings: ABC-DLBCL IkBa-CBG/CBR reporter, luminescence ratio (green luciferase fused to IkBa over red control in TMD8 lymphoma cells), 4 h
# How it was run: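 Cell line TMD8 (human ABC DLBCL), stably expressing tet-inducible CBG68-IkBa fusion and CBR; IMDM/0.5% FBS; cpd up to 46 uM; dox induction, 4 h, 37C/5% CO2; dual luminescence; green/red ratio; MG132 control.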
# [1] = measured here: CBR red luminescence, cell number
# [2] = measured here: IkBa-CBG green luminescence
Structure (SMILES),AC50 [1],AC50 [2]
COCCn1c(SCC(=O)Nc2ccccc2C)nc2c(oc3ccccc32)c1=O,"4.61 µM [rising, full curve, poor fit]",
O=C(NN=C1CCCC1)c1cc(O)cc(O)c1,"14.1 µM [falling, partial curve, poor fit]",
COC(=O)/C=C/C(=O)N1CCN(c2ccccc2)CC1,"23.1 µM [falling, partial curve, poor fit]",
COc1ccc(/C=N\n2nnc3ccccc32)cc1,"9.2 µM [falling, partial curve, poor fit]",
COC(=O)c1cccc(C(=O)Nc2ccc(C)cc2)n1,"12.6 µM [falling, partial curve]",
CC(=C/C(=O)O)/C=C/c1ccc(Cl)o1,"0.0058 µM [rising, full curve, poor fit]",
CCOC(=O)c1cc2c(ccn2C)n1CC(=O)N1CCN(c2ccccc2OC)CC1,"12.6 µM [rising, single point]",
COc1ccc(NC(=O)c2cccc(N3C(=O)c4cccc([N+](=O)[O-])c4C3=O)c2)cc1,"11.2 µM [falling, partial curve, poor fit]",
COC(=O)CNC(c1ccccc1Cl)c1cc(Br)ccc1NC(=O)CCN1CCOCC1 (stereo not given),"10 µM [falling, partial curve]",
O=C(NCc1ccccc1)c1cccc(COc2ccc3c(c2)CCC3)c1,"29.1 µM [falling, single point]",
COc1cccc(C(=O)Nc2cccc(NC(=O)c3cccs3)c2)c1,"8.91 µM [falling, partial curve, poor fit]",
COc1cccc(C(=O)Nc2cccc(-c3ccccc3)c2)c1,"35.5 µM [falling, single point]",
CCS(=O)(=O)N(CC(=O)Nc1cccc2ccccc12)c1ccc(OC)cc1,"6.51 µM [rising, single point]",
CCCCC(=O)NC1(C(F)(F)F)C(=O)Nc2c1c(=O)n(C)c(=O)n2C (stereo not given),"29.1 µM [falling, single point]",
CCc1cccc(NC(=O)COc2ccccc2)c1,"2.59 µM [rising, partial curve, poor fit]",
CCn1cc(C(=O)N[C@@H](CCSC)C(=O)NCCO)c(=O)c2cc3c(cc21)OCO3,"35.5 µM [rising, single point]",
CCOC(=O)c1c(NC(=O)COC(=O)CNC(=O)c2ccco2)sc(C)c1C,"14.6 µM [rising, partial curve, poor fit]",
CCN(CC)C(=O)c1ccc(-c2nnc(OC)c3ccccc23)cc1,"35.5 µM [rising, single point]",
COc1ccccc1NC(=O)N1CCN(C)CC1,"14.1 µM [rising, partial curve, poor fit]",
O=S(=O)(c1c(Cl)sc(Cl)c1Br)N1CCCC1,"7.08 µM [rising, full curve, poor fit]",
O=[N+]([O-])c1cc(-c2ncccn2)c([N+](=O)[O-])s1,"18.4 µM [falling, partial curve]",
O=C(/C=C/c1ccccc1)NCC(=O)N/N=C/c1ccccc1[N+](=O)[O-],"11.2 µM [rising, partial curve, poor fit]",

# For convenience, part of the list above.
Structure (SMILES),AC50 [1],AC50 [2]
COC(=O)/C=C/C(=O)N1CCN(c2ccccc2)CC1,"23.1 µM [falling, partial curve, poor fit]",
COc1ccc(/C=N\n2nnc3ccccc32)cc1,"9.2 µM [falling, partial curve, poor fit]",

# Next entries follow.

Structure (SMILES),AC50 [1],AC50 [2]
Cc1cc(C)n2c(SCCC(C)C)nnc2n1,"0.562 µM [rising, full curve, poor fit]",
Cc1cccc(OCCC(=O)Nc2ccccc2C(N)=O)c1,"10 µM [falling, partial curve, poor fit]",
CCCCc1nnc(NC(=O)C2CCCO2)s1 (stereo not given),"6.51 µM [falling, single point]",
N#Cc1cccc2c1-c1ccccc1/C2=N/NC(N)=S,"2.82 µM [rising, partial curve, poor fit]","2.51 µM [falling, partial curve, poor fit]"
CC(=O)Nc1ccc(-c2ccc(NC(C)=O)c(O)c2)cc1O,"20 µM [rising, partial curve, poor fit]",
O=C(NCCN1CCOCC1)C1CCN(Cc2ccccc2O)CC1,"0.92 µM [rising, full curve, poor fit]",
CCOC(=O)Nc1ccc([N+](=O)[O-])cc1C,"3.66 µM [rising, full curve, poor fit]",
CN(C)c1ccc(N=Cc2nc(-c3ccccc3)oc2OC(=O)c2cccc(Cl)c2)cc1,"5.17 µM [falling, full curve]",
O=C(N/C(=C/c1cccc(Br)c1)c1nc(=S)[nH][nH]1)c1ccccc1,"2.06 µM [rising, full curve, poor fit]",
COc1ccc(CC(=O)N/N=C(\C)c2ccccn2)cc1,"0.651 µM [falling, partial curve, poor fit]",
O=C(c1ccccc1)c1cc(-c2ccccc2)on1,"32.6 µM [falling, single point]",
Cc1ccc(S(=O)(=O)NC(Cc2ccccc2)C(=O)NN)cc1 (stereo not given),"6.31 µM [falling, single point]",
Cc1nc2c(ccc3nc(NC(=O)C4CC4)sc32)s1,"7.08 µM [falling, full curve]",
COC(=O)[C@@H](NCc1cccc(CN([C@H](C(=O)OC)C(C)C)S(C)(=O)=O)c1)C(C)C,"35.5 µM [falling, partial curve, poor fit]",
COc1ccc(-c2cc(COc3ccccc3)on2)cc1,"2.24 µM [rising, partial curve, poor fit]",
COCc1cc(C)nc(Sc2nc3c(c(=O)n(C)c(=O)n3C)n2C)c1C#N,"2.82 µM [falling, partial curve, poor fit]",
COc1ccccc1OCCNC(=O)c1ccc(Br)cc1,"22.4 µM [falling, single point]",
Cn1c(SCc2nnc(-c3ccccc3Br)o2)nc2sc3c(c2c1=O)CCC3,"10 µM [falling, partial curve]",
N#C/C(=C\c1ccc(OC(=O)c2ccc(Cl)s2)cc1)c1nc2ccccc2[nH]1,"3.26 µM [rising, full curve, poor fit]",
CCc1ccc(C2=NN(C(=O)OC)C(O)(C(F)(F)F)C2)cc1 (stereo not given),"7.94 µM [rising, partial curve]",
CC(=O)NCCOc1nc(N2CCCCC2)nc(N2CCCCC2)n1,"20 µM [falling, partial curve, poor fit]",
CCOc1ccccc1CNC(=O)C1CCCN(c2nn3c(=O)cc(C)nc3s2)C1 (stereo not given),"0.2 µM [rising, full curve, poor fit]",

Structure (SMILES),AC50 [1],AC50 [2]
COc1ccc(-c2nc3sc(CCNC(=O)C(=O)Nc4cccc(NC(C)=O)c4)c(C)n3n2)cc1,"11.2 µM [falling, single point]",
COc1ccc(C)cc1NC(=O)CN1CCCC1c1ccc2c(c1)OCCCO2 (stereo not given),,"0.164 µM [falling, partial curve, poor fit]"
O=C(CSc1ncc(-c2ccccc2)n1C1CCCC1)N1CCc2ccccc21,"2.82 µM [rising, full curve, poor fit]",
CCc1nnc(NC(=O)CSc2nc3cc(OC)c(OC)cc3cc2C)s1,"25.1 µM [falling, single point]",
CSc1cccc(NS(=O)(=O)c2ccc3c(c2)CCN3C(C)=O)c1,"0.398 µM [falling, full curve, poor fit]",
O=C(CN1CCN(CCC(=O)Nc2ccccc2F)CC1)Nc1ccc(Cl)cc1,"0.0891 µM [falling, full curve, poor fit]",
CCOC(=O)N1CCN(CCC(=O)Nc2cc(C)ccc2OC)CC1,"35.5 µM [rising, partial curve, poor fit]",
CNCCC1Sc2ccccc2Oc2ccccc21 (stereo not given),"7.08 µM [falling, partial curve, poor fit]",
COc1ccc2oc(C(=O)N3CCN(C(c4ccccc4)c4ccccc4)CC3)c(C)c2c1,"2.06 µM [falling, partial curve, poor fit]",
O=S(=O)(O/N=C1\CCCc2ccccc21)c1ccc(Cl)cc1,"6.51 µM [rising, single point]",
CCN(C(=O)COC(=O)c1ccc(COc2ccc3c(C)cc(=O)oc3c2)cc1)C1CCS(=O)(=O)C1 (stereo not given),"7.94 µM [falling, partial curve]",
CCOC(=O)c1c(-c2ccc(Cl)cc2)csc1NC(=O)CNCc1ccco1,"35.5 µM [falling, single point]",
C=CCOC(=O)C1=C(C)NC(=O)NC1/C=C/c1ccccc1OC (stereo not given),"8.91 µM [falling, partial curve, poor fit]",
COc1ccc(-c2nnc(SC)n2C)cc1,"0.708 µM [rising, full curve, poor fit]",
Cc1ccc2c(c1)c(C)c(C)n2CC(O)Cn1nc(C)c(Br)c1C (stereo not given),"35.5 µM [falling, single point]",
Cc1cccc(NC(=O)Cn2c(O)c(N=NC(=O)c3ccccc3O)c3ccccc32)c1,"1.84 µM [falling, full curve]",
CCOC(=O)c1cc(=O)n2nc(-c3ccccc3F)nc2s1,"1.16 µM [rising, full curve]",
C/C(=N/NC(=S)Nc1ccccc1)c1ccc2c(c1)OCO2,"18.4 µM [falling, single point]",
Cc1nc(Sc2ccccc2)c(C#N)cc1-c1ccccc1,"2 µM [rising, full curve, poor fit]",
O=C(CN1C(=O)CCC1=O)Nc1nc(-c2ccccn2)cs1,"5.17 µM [falling, partial curve, poor fit]",

# Sorted by molecular weight (low to high): 3 of the compounds above
Structure (SMILES),AC50 [1],AC50 [2]
COc1ccc(C)cc1NC(=O)CN1CCCC1c1ccc2c(c1)OCCCO2 (stereo not given),,"0.164 µM [falling, partial curve, poor fit]"
CCc1nnc(NC(=O)CSc2nc3cc(OC)c(OC)cc3cc2C)s1,"25.1 µM [falling, single point]",
CCOC(=O)c1c(-c2ccc(Cl)cc2)csc1NC(=O)CNCc1ccco1,"35.5 µM [falling, single point]",
